{"source": "paper PMC11591307", "about": "(Antioxidants, 2024)", "assay": "general procedure: solution-phase peptide synthesis", "note": "HELM strings list residues between dots; [ac] is acetyl, [am] amide, other brackets name non-standard units."}
{"substance": "PEPTIDE1{[LA].R.G.D.V}$$$$V2.0", "values": [{"measurement": "conjugation yield", "setting": "conjugation step, final yield", "result": 14.2, "unit": "%"}, {"measurement": "final LC-MS purity", "setting": "whole synthesis, LC-MS", "result": "exceeded 98%"}]}
